{
  "sequences": {"note": "Amino acid sequences for entries named in this document (tags omitted). Residues count along the entry.", "UniProt P03952, 20-390 limits assumed": "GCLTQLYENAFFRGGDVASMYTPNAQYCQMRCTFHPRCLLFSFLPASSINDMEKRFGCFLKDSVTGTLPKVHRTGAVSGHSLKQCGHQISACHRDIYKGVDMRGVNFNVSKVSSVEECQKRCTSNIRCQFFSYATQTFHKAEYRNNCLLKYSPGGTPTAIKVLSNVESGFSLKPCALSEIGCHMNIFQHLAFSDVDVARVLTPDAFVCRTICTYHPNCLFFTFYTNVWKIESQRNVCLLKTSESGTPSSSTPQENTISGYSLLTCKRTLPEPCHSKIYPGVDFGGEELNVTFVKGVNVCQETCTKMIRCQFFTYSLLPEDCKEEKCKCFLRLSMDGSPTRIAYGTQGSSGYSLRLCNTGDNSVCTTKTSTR", "UniProt P03952, 391-638 limits assumed": "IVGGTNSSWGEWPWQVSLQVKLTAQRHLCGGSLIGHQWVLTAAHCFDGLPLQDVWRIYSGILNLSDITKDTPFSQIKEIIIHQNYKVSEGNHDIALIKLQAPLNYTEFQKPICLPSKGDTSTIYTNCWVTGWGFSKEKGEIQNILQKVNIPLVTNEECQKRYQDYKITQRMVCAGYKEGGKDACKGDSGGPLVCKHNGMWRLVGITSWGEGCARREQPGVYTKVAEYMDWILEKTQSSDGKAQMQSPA"},
  "source": "patent US20240218079A1",
  "about": "“PLASMA KALLIKREIN ANTIBODIES AND USES THEREOF” (Astria Therapeutics, Inc., priority 2021, published 2024)",
  "molecules": {"B1": {"name": "MAb4-YTE: MAb4 with M252Y, S254T, T256E; heavy chain SEQ ID NO: 10, light chain SEQ ID NO: 8 (antibody)", "heavy": "QVQLVQSGAEVKKPGSSVKVSCKASGYAFSSYWMNWVRQAPGQGLEWIGQIYPGDDDTNYNAKFQGRVTITVDKSTTTAYMELSSLRSEDTAVYFCAGSLMVTTGAPFDYWGQGTTVTVSSASTKGPSVFPLAPSSKSTSGGTAALGCLVKDYFPEPVTVSWNSGALTSGVHTFPAVLQSSGLYSLSSVVTVPSSSLGTQTYICNVNHKPSNTKVDKRVEPKSCDKTHTCPPCPAPELLGGPSVFLFPPKPKDTLYITREPEVTCVVVDVSHEDPEVKFNWYVDGVEVHNAKTKPREEQYNSTYRVVSVLTVLHQDWLNGKEYKCKVSNKALPAPIEKTISKAKGQPREPQVYTLPPSREEMTKNQVSLTCLVKGFYPSDIAVEWESNGQPENNYKTTPPVLDSDGSFFLYSKLTVDKSRWQQGNVFSCSVMHEALHNHYTQKSLSLSPG", "light": "DIQMTQSPSSLSASVGDRVTITCKASQDVGIAVAWYQQKPGKAPKFLIYYASHRGWGVPDRFSGSGSGTDFTLTISSLQPEDFATYFCQQYRSYPLTFGQGTKLEIKRTVAAPSVFIFPPSDEQLKSGTASVVCLLNNFYPREAKVQWKVDNALQSGNSQESVTEQDSKDSTYSLSSTLTLSKADYEKHKVYACEVTHQGLSSPVTKSFNRGEC"}},
  "key": {"human plasma kallikrein": {"target": "T1, human plasma kallikrein (Homo sapiens, UniProt P03952)", "T1 construct": "active human plasma kallikrein (pkal, Enzyme Research Labs, South Bend, IN); purchased Enzyme Research Labs", "experiment": "SPR binding to human plasma kallikrein", "protocol": "Kinetic properties and selectivity of lead pkal antibodies were examined by SPR at 37° C. and either pH 7.4 or pH 6.0."}, "16 proteases": {"tested_on": "16 proteases", "experiment": "Serine protease inhibition assays, whole panel", "assay_type": "biochemical", "details": "dilution starting at 1 μM"}},
  "note": "For some assays here: The name of at least one read-out is uncertain. Some results were stated once for a whole list of compounds, not compound by compound.",
  "data": [
    {"molecule": "B1", "values": [
      {"measurement": "stronger binding affinity for plasma kallikrein than reference antibody DX-2930", "setting": "human plasma kallikrein", "value": "greater than 5 fold"},
      {"measurement": "IC50 against any serine protease tested", "setting": "16 proteases", "value": "No IC50 could be calculated"}
    ]}
  ]
}
